Measured values taken from ChEMBL document CHEMBL1147364, “An antifungal bibenzyl from the New Zealand liverwort, Plagiochila stephensoniana. Bioactivity-directed isolation, synthesis, and analysis” (J Nat Prod, 1993).

System: Candida albicans
Assay: Antifungal activity against Candida albicans 10261 at 100 units/disk by disk diffusion assay
Type: functional, organism-based

NYSTATIN
inhibition zone (IZ): 10 mm
